Results on four substances are retold here after paper PMC7892347.

Protein sequences, listed by entry. Tags and fused reporters are not part of them. Lines headed by an entry give the natural chain unless they say otherwise; changes in a name come on top. Residues count along the entry.
UniProt Q92673: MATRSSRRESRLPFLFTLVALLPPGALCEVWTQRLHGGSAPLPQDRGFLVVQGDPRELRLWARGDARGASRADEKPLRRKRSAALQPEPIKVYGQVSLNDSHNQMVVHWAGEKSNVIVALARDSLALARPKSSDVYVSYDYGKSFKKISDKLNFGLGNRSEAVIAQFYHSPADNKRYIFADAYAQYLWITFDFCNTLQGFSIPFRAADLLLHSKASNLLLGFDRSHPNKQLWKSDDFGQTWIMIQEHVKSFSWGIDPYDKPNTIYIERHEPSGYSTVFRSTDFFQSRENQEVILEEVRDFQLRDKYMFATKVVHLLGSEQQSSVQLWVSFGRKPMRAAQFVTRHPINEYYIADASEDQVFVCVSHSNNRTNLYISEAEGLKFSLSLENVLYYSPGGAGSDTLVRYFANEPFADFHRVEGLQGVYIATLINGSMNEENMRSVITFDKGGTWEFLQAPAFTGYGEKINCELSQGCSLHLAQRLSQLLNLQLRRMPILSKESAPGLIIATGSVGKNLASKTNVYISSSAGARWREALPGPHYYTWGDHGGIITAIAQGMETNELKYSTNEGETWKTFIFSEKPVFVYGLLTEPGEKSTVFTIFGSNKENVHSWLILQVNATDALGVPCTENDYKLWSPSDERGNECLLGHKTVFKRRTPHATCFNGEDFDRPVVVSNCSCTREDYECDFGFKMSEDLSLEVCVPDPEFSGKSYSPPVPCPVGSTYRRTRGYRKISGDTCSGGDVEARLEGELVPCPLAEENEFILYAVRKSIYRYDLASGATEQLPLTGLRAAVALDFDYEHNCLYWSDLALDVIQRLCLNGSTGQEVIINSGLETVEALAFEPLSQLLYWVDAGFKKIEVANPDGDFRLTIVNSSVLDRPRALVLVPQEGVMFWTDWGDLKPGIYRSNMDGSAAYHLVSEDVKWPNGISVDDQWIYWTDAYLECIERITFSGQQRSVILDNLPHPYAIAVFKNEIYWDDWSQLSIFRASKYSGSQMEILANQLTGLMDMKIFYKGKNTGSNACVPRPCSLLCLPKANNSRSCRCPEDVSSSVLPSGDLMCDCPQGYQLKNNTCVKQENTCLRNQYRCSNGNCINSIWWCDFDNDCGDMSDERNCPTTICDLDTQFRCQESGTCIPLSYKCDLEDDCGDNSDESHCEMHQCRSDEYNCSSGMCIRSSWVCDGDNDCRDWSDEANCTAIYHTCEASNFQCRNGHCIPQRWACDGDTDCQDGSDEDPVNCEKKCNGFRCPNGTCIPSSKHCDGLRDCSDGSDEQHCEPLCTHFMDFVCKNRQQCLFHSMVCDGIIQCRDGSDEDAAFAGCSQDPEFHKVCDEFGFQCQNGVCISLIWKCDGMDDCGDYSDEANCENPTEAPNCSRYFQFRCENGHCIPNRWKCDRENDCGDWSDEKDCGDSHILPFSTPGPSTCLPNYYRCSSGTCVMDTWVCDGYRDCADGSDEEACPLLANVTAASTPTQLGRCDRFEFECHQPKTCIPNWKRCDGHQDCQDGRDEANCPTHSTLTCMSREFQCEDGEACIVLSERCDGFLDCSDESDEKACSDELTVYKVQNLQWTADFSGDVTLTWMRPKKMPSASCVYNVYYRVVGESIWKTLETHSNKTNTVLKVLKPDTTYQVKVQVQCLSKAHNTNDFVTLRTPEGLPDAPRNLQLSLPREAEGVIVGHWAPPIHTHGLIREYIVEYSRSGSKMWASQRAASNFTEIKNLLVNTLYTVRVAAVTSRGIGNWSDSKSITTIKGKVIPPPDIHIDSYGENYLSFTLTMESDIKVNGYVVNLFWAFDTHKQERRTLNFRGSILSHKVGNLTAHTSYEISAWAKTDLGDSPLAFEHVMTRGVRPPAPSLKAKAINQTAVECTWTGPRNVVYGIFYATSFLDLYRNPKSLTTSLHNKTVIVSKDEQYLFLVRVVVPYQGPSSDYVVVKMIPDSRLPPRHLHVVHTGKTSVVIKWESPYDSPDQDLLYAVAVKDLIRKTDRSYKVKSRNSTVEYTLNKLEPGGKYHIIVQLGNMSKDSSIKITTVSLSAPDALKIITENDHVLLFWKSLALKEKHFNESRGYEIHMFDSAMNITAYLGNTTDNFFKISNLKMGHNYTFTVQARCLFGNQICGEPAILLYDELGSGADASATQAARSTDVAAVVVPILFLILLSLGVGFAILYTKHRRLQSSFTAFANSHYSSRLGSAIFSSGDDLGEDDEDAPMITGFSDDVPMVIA
SorLA-v1: residues 82-2214 of Q92673
SorLA ectodomain: residues 82-2137 of Q92673
UniProt P21860: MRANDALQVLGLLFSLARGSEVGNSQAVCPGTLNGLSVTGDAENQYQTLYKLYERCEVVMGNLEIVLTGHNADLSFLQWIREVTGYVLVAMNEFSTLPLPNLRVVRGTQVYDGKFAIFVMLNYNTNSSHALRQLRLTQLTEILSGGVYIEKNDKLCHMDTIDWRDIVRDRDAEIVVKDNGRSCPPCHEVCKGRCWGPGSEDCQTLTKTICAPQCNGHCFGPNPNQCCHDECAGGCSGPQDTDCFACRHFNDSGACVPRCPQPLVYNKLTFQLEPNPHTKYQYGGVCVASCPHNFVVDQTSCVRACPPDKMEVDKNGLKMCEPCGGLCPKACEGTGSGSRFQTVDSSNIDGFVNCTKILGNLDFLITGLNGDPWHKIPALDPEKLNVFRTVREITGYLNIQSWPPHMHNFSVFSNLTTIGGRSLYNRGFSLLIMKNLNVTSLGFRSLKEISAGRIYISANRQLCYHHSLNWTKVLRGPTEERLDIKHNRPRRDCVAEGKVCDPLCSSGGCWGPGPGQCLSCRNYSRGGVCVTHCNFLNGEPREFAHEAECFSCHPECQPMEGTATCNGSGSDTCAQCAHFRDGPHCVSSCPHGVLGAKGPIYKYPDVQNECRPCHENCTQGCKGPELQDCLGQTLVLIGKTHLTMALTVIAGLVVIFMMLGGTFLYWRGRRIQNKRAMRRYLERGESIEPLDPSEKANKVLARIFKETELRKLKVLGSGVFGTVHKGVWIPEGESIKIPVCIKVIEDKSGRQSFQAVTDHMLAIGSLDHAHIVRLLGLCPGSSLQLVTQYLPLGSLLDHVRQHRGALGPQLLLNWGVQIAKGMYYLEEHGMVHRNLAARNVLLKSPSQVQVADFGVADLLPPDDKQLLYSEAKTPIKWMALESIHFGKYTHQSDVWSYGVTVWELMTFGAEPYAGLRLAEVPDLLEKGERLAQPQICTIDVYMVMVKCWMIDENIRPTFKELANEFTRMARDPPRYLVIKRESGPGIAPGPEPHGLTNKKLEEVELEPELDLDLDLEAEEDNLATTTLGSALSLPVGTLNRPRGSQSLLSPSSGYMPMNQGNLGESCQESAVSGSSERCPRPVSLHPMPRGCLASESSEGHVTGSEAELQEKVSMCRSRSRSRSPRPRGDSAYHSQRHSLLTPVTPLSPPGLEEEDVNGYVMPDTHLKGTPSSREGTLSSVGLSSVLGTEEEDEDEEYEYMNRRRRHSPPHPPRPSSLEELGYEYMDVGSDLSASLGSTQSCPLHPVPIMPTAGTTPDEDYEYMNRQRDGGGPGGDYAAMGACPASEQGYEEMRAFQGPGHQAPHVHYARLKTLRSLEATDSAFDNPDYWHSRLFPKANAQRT

These are yes or no findings as the source states them, for the method shown. For some assays here: Binding seen in cells or lysates may run through a third protein. Some binding calls cover weakened binding; strength is not graded here.

Experiment [1] deals with SorLA ectodomain (UniProt Q92673). The experiment is described as follows: SPR; BIAcore3000; SorLA ectodomain immobilised on a CM5 chip at 56 fmol/mm^2; concentration series of HER3 (20-200 nM) or HER2 flowed over; 10 mM Hepes, pH 7.4/150 mM NaCl/5 mM CaCl2/0.005% Tween 20; both purified.
The target is the same in experiment [2]. The experiment is described as follows: SPR; BIAcore3000; SorLA ectodomain immobilised on a CM5 chip at 56 fmol/mm^2; concentration series of HER3 (20-200 nM) or HER2 flowed over; pH 6.0; both purified. In general terms: Surface plasmon resonance follows binding to a sensor surface in real time, without labels.
For experiment [3] the target is unchanged. As to the kind of experiment: SPR; BIAcore3000; SorLA ectodomain immobilised on a CM5 chip at 56 fmol/mm^2; concentration series of HER3 (20-200 nM) or HER2 flowed over; pH 5.0; both purified.
In the next experiment the target is SorLA-v1 (UniProt Q92673). As to the kind of experiment: split reporter; BiFC of Venus fragments v1 and v2 fused to the two proteins, coexpressed in BT-474 cells; confocal imaging of reconstituted Venus.

As to “HER2 ectodomain (ACRO Biosystems, HE2-H5212) (from UniProt P04626 23-652) (domain or fragment)”, the binding entry with SorLA ectodomain [1], with SorLA ectodomain [2] and in the experiment with SorLA ectodomain [3] was “binds” throughout.

For the substance “HER2-v2 (from UniProt P04626 23-1255) (receptor)”, the binding result in the experiment with SorLA-v1 was “binds”.

For the substance “HER3 ectodomain (ACRO Biosystems, ER3-H5223) (from UniProt P21860 20-643) (domain or fragment)”, the binding entry with SorLA ectodomain [1], with SorLA ectodomain [2] and with SorLA ectodomain [3] was “binds” each time.

As to “HER3-v2 (from UniProt P21860 20-1342) (receptor)”, the binding result with SorLA-v1 is “binds”.
